# PubChem BioAssay AID901 (National Center for Advancing Translational Sciences (NCATS), 2007)
# The other results are listed elsewhere or left out. Further columns of the screen follow, without active or inactive calls. Most of these compounds were active or inconclusive in the main read-out, so they are no random draw. Words in brackets tell the shape of the fitted curve; partial curves, single points and poor fits give uncertain potencies.
# Experiment: qHTS Assay for Identifying the Cell-Membrane Permeable IMPase Inhibitors
# Details: CHO-M1 cells, IP1 accumulation, HTRF TR-FRET ratio; measured here: donor channel 620 nm AC50
row,Structure (SMILES),AC50
1,Cc1ccccc1OCC(=O)NCCC(=O)O,"100 nM [rising, full curve, poor fit]"
2,COc1ccc(-c2cc(C(F)(F)F)nc(SCC(=O)NCCc3ccccc3)n2)cc1,"35500 nM [rising, single point]"
3,Cc1n[nH]c(=O)n1-c1ccc(Oc2ccccc2)cc1,"20000 nM [falling, single point]"
4,CCN1CCN(CCNC(=O)c2cn(Cc3ccccc3F)nn2)CC1,"1000 nM [falling, full curve]"
5,O=C(COc1ccc([N+](=O)[O-])cc1)N/N=C/c1ccccn1,"31600 nM [falling, single point]"
6,Cc1nnc(NC(=O)c2c(F)c(F)c(F)c(F)c2F)s1,"5620 nM [falling, single point]"
7,CCOc1ccc(NC(=O)CSc2nnc(C)n2CC2CCCO2)cc1 (stereo not drawn),"100 nM [falling, full curve, poor fit]"
8,Cc1cccc(COc2ccc(/C(O)=C3\C(=O)C(=O)N(CCN(C)C)C3c3ccncc3)cc2)c1 (stereo not drawn),"126 nM [falling, single point]"
9,COC(=O)c1cc2c(ccn2-c2ccc(F)cc2)n1CC(=O)N1CCN(C(=O)c2ccco2)CC1,"31.6 nM [falling, full curve, poor fit]"
10,O=c1oc2ccccc2c(N2CCN(c3ccccc3F)CC2)c1CN1CCCC1,"3980 nM [falling, partial curve]"
11,c1ccc2c(c1)CCN(c1nc3cc4c(cc3s1)OCCO4)C2,"3160 nM [falling, single point]"
12,COc1ccc(NC(C)=O)cc1NC(=O)CSc1nnc(-c2ccncc2)n1C,"251 nM [falling, full curve]"
13,Cc1ccc(C2C(C(N)=S)=C(N)OC3=C2C(=O)CC(C)(C)C3)cc1 (stereo not drawn),"31600 nM [rising, single point]"
14,COc1ccc(C(NC(=O)c2c(F)c(F)c(F)c(F)c2F)c2ccccc2)cc1 (stereo not drawn),"2820 nM [falling, single point]"
15,O=C(CN1C(=O)c2cccc3cccc1c23)Nc1ccc(S(=O)(=O)N2CCOCC2)cc1,"31600 nM [falling, single point]"
16,COc1ccccc1N1CCN(C(=O)c2cc(-c3ccc(Cl)cc3)on2)CC1,"20 nM [falling, full curve, poor fit]"
17,Cc1occc1C(=O)Nc1ccc2c(c1)OCCO2,"126 nM [falling, full curve]"
18,Cc1c(/C(O)=C2/C(=O)C(=O)N(Cc3cccnc3)C2c2cccs2)cnn1-c1ccccc1 (stereo not drawn),"20000 nM [rising, partial curve]"

# Individual results from the list.
# AC50 with `COc1ccc(-c2cc(C(F)(F)F)nc(SCC(=O)NCCc3ccccc3)n2)cc1` is entered as 35500 nM [rising, single point]
# AC50 with `O=C(CN1C(=O)c2cccc3cccc1c23)Nc1ccc(S(=O)(=O)N2CCOCC2)cc1` is entered as 31600 nM [falling, single point]
